This is an account of results in paper PMC11668892.

Sequences of proteins named here, by UniProt entry; tags and fusion partners are left off.
UniProt Q15910: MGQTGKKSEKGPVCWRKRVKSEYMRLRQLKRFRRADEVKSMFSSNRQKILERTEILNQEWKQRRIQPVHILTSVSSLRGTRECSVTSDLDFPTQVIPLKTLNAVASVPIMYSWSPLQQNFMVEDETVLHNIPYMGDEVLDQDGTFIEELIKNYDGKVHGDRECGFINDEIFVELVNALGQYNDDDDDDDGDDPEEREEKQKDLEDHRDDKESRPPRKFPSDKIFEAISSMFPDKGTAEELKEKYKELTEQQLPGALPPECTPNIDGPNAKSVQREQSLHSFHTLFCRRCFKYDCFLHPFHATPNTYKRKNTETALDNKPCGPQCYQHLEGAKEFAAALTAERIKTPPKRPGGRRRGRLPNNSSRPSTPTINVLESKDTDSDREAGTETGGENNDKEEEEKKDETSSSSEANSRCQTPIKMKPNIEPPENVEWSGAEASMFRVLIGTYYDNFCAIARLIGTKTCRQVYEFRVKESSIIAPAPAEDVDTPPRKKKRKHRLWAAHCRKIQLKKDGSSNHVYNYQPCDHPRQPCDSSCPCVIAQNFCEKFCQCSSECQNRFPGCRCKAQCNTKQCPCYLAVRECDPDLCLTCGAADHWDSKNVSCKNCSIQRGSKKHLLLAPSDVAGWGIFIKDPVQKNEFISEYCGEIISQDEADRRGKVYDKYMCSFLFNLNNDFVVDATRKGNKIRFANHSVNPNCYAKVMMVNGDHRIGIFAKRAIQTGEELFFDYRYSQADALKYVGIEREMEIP
UniProt Q9NRC8: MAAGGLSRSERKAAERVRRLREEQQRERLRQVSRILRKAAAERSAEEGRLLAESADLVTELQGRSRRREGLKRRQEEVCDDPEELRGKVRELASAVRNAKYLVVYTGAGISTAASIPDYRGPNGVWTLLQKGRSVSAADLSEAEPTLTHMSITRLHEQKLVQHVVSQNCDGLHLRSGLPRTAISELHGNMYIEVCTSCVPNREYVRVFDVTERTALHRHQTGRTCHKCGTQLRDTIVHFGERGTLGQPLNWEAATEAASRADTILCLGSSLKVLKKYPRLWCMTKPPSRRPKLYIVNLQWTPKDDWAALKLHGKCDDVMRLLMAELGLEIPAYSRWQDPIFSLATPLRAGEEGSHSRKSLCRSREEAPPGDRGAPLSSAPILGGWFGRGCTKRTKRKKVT

This test addresses enhancer of zeste homolog 2 (EZH2) (human (endogenous in UMUC3)) (UniProt Q15910). The experiment in a line: co-IP; UMUC3 cell lysate (IP lysis buffer), 500 ug protein pre-cleared with Protein A+G agarose; IP antibodies against SIRT7 or EZH2 overnight at 4 C; Western blot detection. In general terms: A western blot detects proteins with antibodies after separation by electrophoresis.

No constants are given. Whether binding was seen depends on the method and setting. In cells and extracts the contact can be indirect. Some binding calls cover weakened binding; strength is not graded here.

In the case of SIRT7 (from UniProt Q9NRC8 1-400), the binding entry is reported as “binds”.
